PubChem BioAssay AID1224830, NIAID, 2016
The whole screen tested about 18,000 reagents; shown is a part drawn at random. About 2,900 of them (16%) count as active. 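Calls are made per well; low scores hint the gene aids the LPS response, high scores that it dampens it.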 Entries without a mark were called inactive. Repeated entries: four replicate wells of each siRNA pool.

Assay: 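Regulators of TLR4 signalling towards TNF-alpha in macrophage-like cells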 (primary screen)
System: human THP-1 monocytic leukaemia cells, TNF dual-luciferase reporter clone, PMA-differentiated to macrophage-like cells
Reagent: siRNA pool against human genes, 50 nM
Timing: LPS for 4 h, given about 3 days after siRNA transfection
Challenge: bacterial LPS (TLR4 ligand), 10 ng/ml
Read-out: 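TNF firefly reporter luminescence divided by renilla, normalised to the plate median, then turned into a robust z-score for each replicate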
Direction: TNF reporter robust z-score: higher = stronger TNF reporter response to LPS
Call rule: 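a well is active when its z-score exceeds 2.8 or falls below -1.5; control wells carry no call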

{"Target gene": "CCDC183 (GeneID 84960)", "TNF reporter robust z-score": 1.34}
{"Target gene": "CCDC183 (GeneID 84960)", "TNF reporter robust z-score": -0.8}
{"Target gene": "CCDC183 (GeneID 84960)", "TNF reporter robust z-score": -1.49}
{"Target gene": "CCDC183 (GeneID 84960)", "TNF reporter robust z-score": -0.62}
{"Target gene": "OR13C4 (GeneID 138804)", "TNF reporter robust z-score": 0.73}
{"Target gene": "OR13C4 (GeneID 138804)", "TNF reporter robust z-score": -0.76}
{"Target gene": "OR13C4 (GeneID 138804)", "TNF reporter robust z-score": -0.46}
{"Target gene": "OR13C4 (GeneID 138804)", "TNF reporter robust z-score": -0.09}
{"Target gene": "INO80D (GeneID 54891)", "TNF reporter robust z-score": 0.72}
{"Target gene": "INO80D (GeneID 54891)", "TNF reporter robust z-score": 0.4}
{"Target gene": "INO80D (GeneID 54891)", "TNF reporter robust z-score": -0.49}
{"Target gene": "INO80D (GeneID 54891)", "TNF reporter robust z-score": 0.01}
{"Target gene": "TERF2IP (GeneID 54386)", "TNF reporter robust z-score": -0.25}
{"Target gene": "TERF2IP (GeneID 54386)", "TNF reporter robust z-score": -0.27}
{"Target gene": "TERF2IP (GeneID 54386)", "TNF reporter robust z-score": -0.37}
{"Target gene": "TERF2IP (GeneID 54386)", "TNF reporter robust z-score": -0.75}
{"Target gene": "RNF7 (GeneID 9616)", "TNF reporter robust z-score": "-1.58 (active)"}
{"Target gene": "RNF7 (GeneID 9616)", "TNF reporter robust z-score": -0.65}
{"Target gene": "RNF7 (GeneID 9616)", "TNF reporter robust z-score": -1.39}
{"Target gene": "RNF7 (GeneID 9616)", "TNF reporter robust z-score": -1.11}
{"Target gene": "ZNF573 (GeneID 126231)", "TNF reporter robust z-score": "2.83 (active)"}
{"Target gene": "ZNF573 (GeneID 126231)", "TNF reporter robust z-score": -0.51}
{"Target gene": "ZNF573 (GeneID 126231)", "TNF reporter robust z-score": -1.35}
{"Target gene": "ZNF573 (GeneID 126231)", "TNF reporter robust z-score": -0.29}
{"Target gene": "CLEC4E (GeneID 26253)", "TNF reporter robust z-score": -0.04}
{"Target gene": "CLEC4E (GeneID 26253)", "TNF reporter robust z-score": -0.33}
{"Target gene": "CLEC4E (GeneID 26253)", "TNF reporter robust z-score": -0.7}
{"Target gene": "CLEC4E (GeneID 26253)", "TNF reporter robust z-score": 0.92}
{"Target gene": "LRTM2 (GeneID 654429)", "TNF reporter robust z-score": 0.54}
{"Target gene": "LRTM2 (GeneID 654429)", "TNF reporter robust z-score": 1.69}
{"Target gene": "LRTM2 (GeneID 654429)", "TNF reporter robust z-score": 0.21}
{"Target gene": "LRTM2 (GeneID 654429)", "TNF reporter robust z-score": 0.29}
{"Target gene": "DNAAF4 (GeneID 161582)", "TNF reporter robust z-score": 1.45}
{"Target gene": "DNAAF4 (GeneID 161582)", "TNF reporter robust z-score": 0}
{"Target gene": "DNAAF4 (GeneID 161582)", "TNF reporter robust z-score": -0.18}
{"Target gene": "DNAAF4 (GeneID 161582)", "TNF reporter robust z-score": 0.55}
{"Target gene": "CDRT15P3 (GeneID 408029)", "TNF reporter robust z-score": -0.94}
{"Target gene": "CDRT15P3 (GeneID 408029)", "TNF reporter robust z-score": -0.81}
{"Target gene": "CDRT15P3 (GeneID 408029)", "TNF reporter robust z-score": -1.18}
{"Target gene": "CDRT15P3 (GeneID 408029)", "TNF reporter robust z-score": -0.1}
{"Target gene": "DDX43 (GeneID 55510)", "TNF reporter robust z-score": -1.14}
{"Target gene": "DDX43 (GeneID 55510)", "TNF reporter robust z-score": -0.7}
{"Target gene": "DDX43 (GeneID 55510)", "TNF reporter robust z-score": -1.02}
{"Target gene": "DDX43 (GeneID 55510)", "TNF reporter robust z-score": 0.42}
{"Target gene": "MAGEE1 (GeneID 57692)", "TNF reporter robust z-score": -0.68}
{"Target gene": "MAGEE1 (GeneID 57692)", "TNF reporter robust z-score": -1.29}
{"Target gene": "MAGEE1 (GeneID 57692)", "TNF reporter robust z-score": -0.76}
{"Target gene": "MAGEE1 (GeneID 57692)", "TNF reporter robust z-score": -0.8}

Active calls, among the entries above:
{"Target gene": "RNF7 (GeneID 9616)", "TNF reporter robust z-score": "-1.58 (active)"}
{"Target gene": "ZNF573 (GeneID 126231)", "TNF reporter robust z-score": "2.83 (active)"}
